The values below come from patent US6504005B1, “Long-acting drugs and pharmaceutical compositions comprising them” (Yeda Research and Development Co. Ltd., priority 1996, dated 2003).

The data set has as its system Staphylococcus aureus. Kind of data set: microbe, parasite or virus in culture. Particulars: for IC50: Staphylococcus aureus. On the procedure:
At the indicated time points, aliquots were withdrawn and analyzed for their potency to arrest growth of Staphylococcus aureus. Bacterial growth was then evaluated by increased turbidity measured spectroscopically at 700 nm.

Read-outs that look alike come from different tables or passages of the source.

`CC1=C(C(=O)O)N2C(=O)[C@@H](NC(=O)[C@H](N)c3ccccc3)[C@H]2SC1` [native cephalexin, 7-(D-α-aminophenylacetamido)desacetoxycephalosporanic acid, reference compound]: the IC50 was 1.5 µM (24 h, pH 7.4, read-out: Concentration inhibiting 50% of bacterial growth (μM) (IC50)); 5.3 µM (72 h, pH 7.4, read-out: Concentration inhibiting 50% of bacterial growth (μM) (IC50)); 18 µM (144 h, pH 7.4, read-out: Concentration inhibiting 50% of bacterial growth (μM) (IC50)); 0.9 µM (read-out: Concentration inhibiting 50% of bacterial growth (μM) (IC50)). Also, under “pH 7.4, 37° C.”, the “Stability upon incubation” value was “substantial time-dependent spontaneous inactivation”.
